The target of this assay is CDK12/CyclinK (Homo sapiens (Human), UniProt Q9NYV4). The assay is described as follows: CDK12/cyclinK enzyme activity. Format: biochemical. To be noted: read-out: CDK12/CyclinK (IC50/μM); in vitro.

Protein sequences, listed by entry. Tags and fused reporters are not part of them.
UniProt Q9NYV4, whole entry: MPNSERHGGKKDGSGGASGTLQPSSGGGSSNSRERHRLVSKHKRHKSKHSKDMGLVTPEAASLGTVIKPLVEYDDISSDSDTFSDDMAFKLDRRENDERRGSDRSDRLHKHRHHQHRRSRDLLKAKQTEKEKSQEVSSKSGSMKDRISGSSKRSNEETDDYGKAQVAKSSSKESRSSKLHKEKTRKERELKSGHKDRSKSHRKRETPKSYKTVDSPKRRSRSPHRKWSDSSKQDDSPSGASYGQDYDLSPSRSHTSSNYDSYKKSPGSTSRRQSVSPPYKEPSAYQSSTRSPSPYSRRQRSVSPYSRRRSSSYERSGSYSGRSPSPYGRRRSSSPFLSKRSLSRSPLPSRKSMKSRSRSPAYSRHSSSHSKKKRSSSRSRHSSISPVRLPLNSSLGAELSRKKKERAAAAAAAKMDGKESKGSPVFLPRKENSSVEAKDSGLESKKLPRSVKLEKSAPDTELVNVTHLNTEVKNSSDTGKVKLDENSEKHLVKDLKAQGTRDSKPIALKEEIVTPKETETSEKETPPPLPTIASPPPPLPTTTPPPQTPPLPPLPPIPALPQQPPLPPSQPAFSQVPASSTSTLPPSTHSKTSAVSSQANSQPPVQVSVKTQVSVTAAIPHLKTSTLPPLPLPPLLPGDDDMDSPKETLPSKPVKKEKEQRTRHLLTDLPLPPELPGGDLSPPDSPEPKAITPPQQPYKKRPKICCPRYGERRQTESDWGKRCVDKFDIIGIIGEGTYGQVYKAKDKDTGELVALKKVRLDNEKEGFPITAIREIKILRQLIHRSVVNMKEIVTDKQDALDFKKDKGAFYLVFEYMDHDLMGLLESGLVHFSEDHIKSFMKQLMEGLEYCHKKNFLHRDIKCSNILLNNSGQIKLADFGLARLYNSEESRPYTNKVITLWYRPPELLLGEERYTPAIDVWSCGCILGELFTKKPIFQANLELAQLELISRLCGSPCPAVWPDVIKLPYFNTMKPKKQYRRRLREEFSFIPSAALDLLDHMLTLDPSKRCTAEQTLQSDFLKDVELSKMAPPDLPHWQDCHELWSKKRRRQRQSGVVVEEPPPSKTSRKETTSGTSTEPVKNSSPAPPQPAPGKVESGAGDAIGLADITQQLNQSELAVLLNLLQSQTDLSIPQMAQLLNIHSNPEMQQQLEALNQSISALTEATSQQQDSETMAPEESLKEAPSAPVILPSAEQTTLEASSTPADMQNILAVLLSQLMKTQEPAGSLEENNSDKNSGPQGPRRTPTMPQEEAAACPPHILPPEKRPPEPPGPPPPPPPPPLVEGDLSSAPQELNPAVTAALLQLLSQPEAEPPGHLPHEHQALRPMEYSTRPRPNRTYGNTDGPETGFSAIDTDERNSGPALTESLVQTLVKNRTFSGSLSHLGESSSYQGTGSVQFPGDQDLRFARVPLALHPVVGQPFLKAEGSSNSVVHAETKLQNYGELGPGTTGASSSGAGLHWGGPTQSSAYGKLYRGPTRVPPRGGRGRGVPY
UniProt O75909, whole entry partner: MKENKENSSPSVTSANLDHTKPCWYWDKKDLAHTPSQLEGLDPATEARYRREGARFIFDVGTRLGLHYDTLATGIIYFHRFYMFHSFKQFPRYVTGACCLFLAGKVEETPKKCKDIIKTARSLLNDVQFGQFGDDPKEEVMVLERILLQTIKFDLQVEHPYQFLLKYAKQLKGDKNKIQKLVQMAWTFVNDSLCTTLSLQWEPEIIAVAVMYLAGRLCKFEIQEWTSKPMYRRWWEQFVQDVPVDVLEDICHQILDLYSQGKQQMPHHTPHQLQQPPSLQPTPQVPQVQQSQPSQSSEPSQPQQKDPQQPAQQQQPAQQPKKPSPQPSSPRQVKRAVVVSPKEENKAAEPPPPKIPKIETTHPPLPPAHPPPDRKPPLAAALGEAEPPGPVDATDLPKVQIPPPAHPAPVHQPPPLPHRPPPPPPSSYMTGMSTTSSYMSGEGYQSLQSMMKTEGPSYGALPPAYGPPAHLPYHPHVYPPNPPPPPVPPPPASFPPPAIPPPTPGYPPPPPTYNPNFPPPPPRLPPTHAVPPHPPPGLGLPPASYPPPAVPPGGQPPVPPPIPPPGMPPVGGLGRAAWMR

The match of structure and compound is tentative.

In the case of `CC(C)n1cnc2c(NCc3ccc(-c4ccccn4)cn3)nc(-c3cccc(O)c3)nc21`, the IC50 came out at 0.713 µM.
